Laboratory results as given in publication PMC6150240, “Synthesis and 2D-QSAR Study of Active Benzofuran-Based Vasodilators” (Molecules : A Journal of Synthetic Chemistry and Natural …, 2017).
Where a name gives a salt, the structure may show the parent alone.

Test system: isolated thoracic aortic rings of male Wistar rats
Experiment: Vasodilation activity screening: isolated thoracic aortic rings pre-contracted with norepinephrine hydrochloride
Settings: Rattus norvegicus, norepinephrine hydrochloride 10^−6 M, three replicates, read-out: Potency (IC50), concentration necessary for 50% reduction of maximal norepinephrine hydrochloride induced contracture
Procedure: The vasodilation activity screening procedures were carried out according to the standard reported techniques by testing the effects of the synthesized 2-alkoxy-4-aryl-6-(benzofuran-2-yl)-3-pyridinecarbonitriles 4a–x on isolated thoracic aortic rings of male Wistar rats (250–350 g). After light ether anesthesia, the rats were sacrificed by cervical dislocation. The aortae were immediately excised, freed of extraneous tissues and prepared for isometric tension recording. Aorta was cut into (3–5 mm width) rings and each ring was placed in a vertical chamber “10 mL jacketed automatic multi-chamber organ bath system (Model no. ML870B6/C, Panlab, Spain)” filled with Krebs solution composed of (in mM): NaCl, 118.0; KCl, 4.7; NaHCO3, 25.0; CaCl2, 1.8; NaH2PO4, 1.2; MgSO4, 1.2; glucose, 11.0 and oxygenated with carbogen gas (95% O2/5% CO2) at 37 ± 0.5 °C. Each aortic ring was mounted between two stainless steel hooks passed through its lumen. […] Preparations were stabilized under 2 g resting tension during 2 h and then the contracture response to norepinephrine hydrochloride (10^−6 M) was measured before and after exposure to increasing concentrations of the tested synthesized compounds. […]

- IC50: 300 µM
SMILES: CCCCc1oc2ccccc2c1C(=O)c1cc(I)c(OCCN(CC)CC)c(I)c1 [Amiodarone.HCl, amiodarone hydrochloride, reference compound]
